PubChem BioAssay AID1259254 – NCATS, 2017
The whole screen tested about 59,000 reagents; this is an unselected part. Of all reagents, about 1,550 (2.6%) were called active. 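G2 share is only a proxy for re-replication; each gene was hit by three separate siRNAs, and active genes were retested.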 A number with no mark means an inactive call. Reagents against one gene are numbered here. Not all columns of the deposit are shown. No sequences are given here. Not stated in the record: the amount of reagent.

Test: 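Genome-wide screen for genes that prevent DNA re-replication in cancer cells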 (primary screen)
System: human HCT116 colorectal cancer cells
Reagents: single siRNA against human genes
Duration: 3 days
Detection: 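Imaged Hoechst DNA stain sorts each cell into a cycle phase by DNA amount; per plate, G2 fraction set to 0% for non-targeting and 100% for GMNN siRNA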
Reading the numbers: G2 robust z-score: higher = more G2 cells, more excess DNA replication
Call rule: 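Active siRNAs have a G2 robust z of 5 or more median absolute deviations over the median, which in these data means about 38% or higher of GMNN control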

PDLIM5 (PDZ and LIM domain 5) #1 → G2 robust z-score: 1.37
PDLIM5 (PDZ and LIM domain 5) #2 → G2 robust z-score: -0.419
PDLIM5 (PDZ and LIM domain 5) #3 → G2 robust z-score: 0.169
AKT2 (AKT serine/threonine kinase 2) #1 → G2 robust z-score: -0.838
AKT2 (AKT serine/threonine kinase 2) #2 → G2 robust z-score: -1.01
AKT2 (AKT serine/threonine kinase 2) #3 → G2 robust z-score: 0.256
IL17A (interleukin 17A) #1 → G2 robust z-score: 5.16 (active)
IL17A (interleukin 17A) #2 → G2 robust z-score: 3.92
IL17A (interleukin 17A) #3 → G2 robust z-score: -0.36

The list goes on; the last 3 above are carried over.
IL17A (interleukin 17A) #1 → G2 robust z-score: 5.16 (active)
IL17A (interleukin 17A) #2 → G2 robust z-score: 3.92
IL17A (interleukin 17A) #3 → G2 robust z-score: -0.36
ADAMTS2 (ADAM metallopeptidase with thrombospondin type 1 motif 2) #1 → G2 robust z-score: -1.54
ADAMTS2 (ADAM metallopeptidase with thrombospondin type 1 motif 2) #2 → G2 robust z-score: -0.455
ADAMTS2 (ADAM metallopeptidase with thrombospondin type 1 motif 2) #3 → G2 robust z-score: -0.743
PATE2 (prostate and testis expressed 2) #1 → G2 robust z-score: 0.0634
PATE2 (prostate and testis expressed 2) #2 → G2 robust z-score: 0.592
PATE2 (prostate and testis expressed 2) #3 → G2 robust z-score: -0.11
OR51E1 (olfactory receptor family 51 subfamily E member 1) #1 → G2 robust z-score: 0.648
OR51E1 (olfactory receptor family 51 subfamily E member 1) #2 → G2 robust z-score: -0.435
OR51E1 (olfactory receptor family 51 subfamily E member 1) #3 → G2 robust z-score: -0.469
SCG5 (secretogranin V) #1 → G2 robust z-score: -0.891
SCG5 (secretogranin V) #2 → G2 robust z-score: 0.755
SCG5 (secretogranin V) #3 → G2 robust z-score: 1.07
ELF2P4 (ELF2 pseudogene 4) #1 → G2 robust z-score: -0.375
ELF2P4 (ELF2 pseudogene 4) #2 → G2 robust z-score: 0.396
ELF2P4 (ELF2 pseudogene 4) #3 → G2 robust z-score: -0.631
